Test results: patent publication US8642764B1, “Julolidine conjugates and methods for their preparation and use” (Jawaharlal Nehru Centre for Advanced Scientific Research, priority 2012, dated 2014)
Some results were stated once for a whole list of compounds, not compound by compound.

Test: Specificity of Schiff-base compounds towards Cu^2+ ions (absorption spectra)
Format: physicochemical
Conditions: presence of Cu^2+ ions
Method: The specificity of bi-julolidine Schiff-base compounds, compound 1 and compound 2, in detecting Cu^2+ ions were investigated by monitoring the absorption spectral behavior of the compounds. The experiment was also performed using other Schiff-base compounds that were prepared by condensing different salicylaldehyde derivatives with carbohydrazide and thiocarbohydrazide (compounds 3-8, shown below).

Row | SMILES | optical response
1 | O=C(N/N=C/c1ccccc1O)N/N=C/c1ccccc1O [compound 3, reference compound] | failed to exhibit any characteristic optical response
2 | COc1ccc(/C=N/NC(=S)N/N=C/c2ccc(OC)cc2O)c(O)c1 [compound 6, reference compound] | failed to exhibit any characteristic optical response
3 | Oc1ccccc1/C=N/NC(=S)N/N=C/c1ccccc1O [compound 4, reference compound] | failed to exhibit any characteristic optical response
4 | COc1ccc(/C=N/NC(=O)N/N=C/c2ccc(OC)cc2O)c(O)c1 [compound 5, reference compound] | failed to exhibit any characteristic optical response
